Data as given in patent US20150011001.
The exact form of at least one protein or probe is not confirmed. Whether high values mean tight binding is not given here for every scale. Tags and fusion partners may be left off the protein sequences shown.

Target: T1, human RNase H1 (Homo sapiens) (UniProt O60930)
T1 sequence (looked up, limits assumed): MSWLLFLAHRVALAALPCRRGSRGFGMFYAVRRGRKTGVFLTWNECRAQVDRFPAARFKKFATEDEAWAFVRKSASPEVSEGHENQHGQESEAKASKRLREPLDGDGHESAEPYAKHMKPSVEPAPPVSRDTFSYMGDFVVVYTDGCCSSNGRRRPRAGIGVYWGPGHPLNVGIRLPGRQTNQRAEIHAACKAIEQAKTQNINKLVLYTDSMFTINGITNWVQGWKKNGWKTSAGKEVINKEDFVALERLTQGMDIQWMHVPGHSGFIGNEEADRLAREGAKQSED
Experiment: enzyme reaction in vitro
Conditions: 1 mM MgCl2, 37 C, purified recombinant protein, protein details: N-terminal His-tag, expressed in E. coli BL21(DE3), label: 5'-32P on RNA, DNA:RNA hybrid

Sequence: CTACGCTTTCCACGCACAGT [A12 pentyl]
- activity signal (ratio V0 modified/unmodified) (pentyl linker replacing position 12 of DNA strand): 0.6

Sequence: AGTTTAGGTCTCCGATCGTC [ISIS 366696]
- activity signal (ratio V0 modified/unmodified) (2'-MOE at 1-5 and 16-20, tetrafluoroindole at 4, vs unmodified MOE gapmer): 1.23

Sequence: CTACGCTTTCCACGCACAGT [T7 4'-methyl]
- activity signal (ratio V0 modified/unmodified) (4'-methylthymidine at position 7 of DNA strand): 0.5

Sequence: CTACGCTTTCCACGCACAGT [A12 propyl]
- activity signal (ratio V0 modified/unmodified) (propyl linker replacing position 12 of DNA strand): 0.5

Sequence: AGTTTAGGTCTCCGATCGTC [ISIS 359469]
- activity signal (ratio V0 modified/unmodified) (2'-MOE at 1-5 and 16-20, tetrafluoroindole at 5): 0.77

Sequence: CTACGCTTTCCACGCACAGT [T8 4'-methyl]
- activity signal (ratio V0 modified/unmodified) (4'-methylthymidine at position 8 of DNA strand): 0.6

Sequence: AGTTTAGGTCTCCGATCGTC [ISIS 366694]
- activity signal (ratio V0 modified/unmodified) (2'-MOE at 1-5 and 16-20, 2,3,4,5-tetrafluorophenyl at 5): 1.49

Sequence: AGTTTAGGTCTCCGATCGTC [ISIS 366695]
- activity signal (ratio V0 modified/unmodified) (2'-MOE at 1-5 and 16-20, 2,3,4,5-tetrafluorophenyl at 6): 1.35

Sequence: CTACGCTTTCCACGCACAGT [T8 S2U]
- activity signal (ratio V0 modified/unmodified) (2-thiouridine (S2T) at position 8 of DNA strand): 0.7

Sequence: CTACGCTTTCCACGCACAGT [C15 butyl]
- activity signal (ratio V0 modified/unmodified) (butyl linker replacing position 15 (as labelled) of DNA strand): 0.5

Sequence: CTACGCTTTCCACGCACAGT [G14 ganciclovir]
- activity signal (ratio V0 modified/unmodified) (ganciclovir at position 14 of DNA strand): 0.4

Sequence: CTACGCTTTCCACGCACAGT [T9 2'-F]
- activity signal (ratio V0 modified/unmodified) (2'-fluorothymidine at position 9 of DNA strand): 0.7

Sequence: AGTTTAGGTCTCCGATCGTC [ISIS 366702]
- activity signal (ratio V0 modified/unmodified) (2'-MOE at 1-5 and 17-20, tetrafluoroindole at 6 and 16): 1.5

Sequence: CTACGCTTTCCACGCACAGT [G14 propyl]
- activity signal (ratio V0 modified/unmodified) (propyl linker replacing position 14 of DNA strand): 0.6

Sequence: CTACGCTTTCCACGCACAGT [T9 2,4-F-tolyl]
- activity signal (ratio V0 modified/unmodified) (2,4-difluorotoluoyl at position 9 of DNA strand): 0.8

Sequence: AGTTTAGGTCTCCGATCGTC [ISIS 366700]
- activity signal (ratio V0 modified/unmodified) (2'-MOE at 1-5 and 16-20, tetrafluoroindole at 14): 0.66

Sequence: CTACGCTTTCCACGCACAGT [C10 abasic]
- activity signal (ratio V0 modified/unmodified) (abasic at position 10 of DNA strand): 0.6

Sequence: CTACGCTTTCCACGCACAGT [G14 F-Me-ben]
- activity signal (ratio V0 modified/unmodified) (2-fluoro-6-methylbenzoimidazole (table prints 4-F-6-Me-ben) at position 14 of DNA strand): 0.8

Sequence: CTACGCTTTCCACGCACAGT [C15 2'-ara-fluoro]
- activity signal (ratio V0 modified/unmodified) (2'-ara-fluoro at position 15 (as labelled) of DNA strand): 1.1
